Experimental data from PMC8578705 (Cell Reports, 2021).

Experiments:
[1] = system: IP3Rs (wild-type HEK cells); assay: Ca2+ release from permeabilized wild-type HEK cells; type: cell-based, Homo sapiens
Description: Incubation of cells with the acetoxymethylester (AM) of Mag-fluo 4 traps low-affinity forms of the indicator ( KdCa = 1.15 mM measured in situ) within the ER. Fluorescence, which is approximately linearly related to ER free [Ca^2+] (since [Ca^2+]ER < KdCa ), can then be used, without further calibration, to reliably report free [Ca^2+] within the ER lumen ([Rossi and Taylor, 2020]). The ER of DT40 or HEK293 cells was loaded with indicator by incubating cells with Mag-fluo 4 AM (20 μM, 60 min, 22°C) in HEPES-buffered saline (HBS: 135 mM NaCl, 5.9 mM KCl, 11.6 mM HEPES, 1.5 mM CaCl2, 11.5 mM glucose, 1.2 mM MgCl2, pH 7.3) as described ([Rossi et al., 2009]). After washing and permeabilization with saponin (10 μg/mL, 37°C, 2-3 min) in Ca^2+-free cytosol-like medium (Ca^2+-free CLM), cells were centrifuged (650 × g, 2 min) and resuspended in Mg^2+-free CLM supplemented with CaCl2 to give a final free [Ca^2+] of 220 nM after addition of 1.5 mM MgATP. Ca^2+-free CLM comprised: 20 mM NaCl, 140 mM KCl, 1 mM EGTA, 20 mM PIPES, 2 mM MgCl2, pH 7.0. […]
For equilibrium binding and concentration-effect relationships, results from each experiment were fitted to Hill equations (PRISM) from which pIC50 (-log of half-maximal inhibitory concentration) or pEC50 (-log of half-maximally effective concentration) values were determined. KDligand was calculated from: KDligand = IC50ligand - [^3H-IP3] /KDIP3 . […]

IBC and NT of IP3R1 = assay: Difference in ligand affinities for the IBC and NT (ΔΔG); design: species or system rat; conditions: difference in ΔG for binding to the IBC and NT

| SMILES | h (Hill coefficient) [1] | ΔΔG (ΔGIBC - ΔGNT) (IBC and NT of IP3R1) [kcal/mol] |
| --- | --- | --- |
| O=C(NCCCN(CCCCN(CCCNC(=O)OCc1ccccc1)C(=O)OCc1ccccc1)C(=O)OCc1ccccc1)NCCO[C@@H]1[C@H](O)[C@@H](OP(=O)(O)O)[C@H](OP(=O)(O)O)[C@@H](O)[C@@H]1OP(=O)(O)O [Compound 2, 2-O-(1,5,10-tris(benzyloxycarbonyl)-15-oxo-1,5,10,14,16-pentaazaoctadecan-18-yl)-1D-myo-inositol 1,4,5-trisphosphate] | 1.1 ± 0.3 | -0.908 |
| O=P(O)(O)O[C@@H]1[C@H](O)[C@H](O)[C@@H](OP(=O)(O)O)[C@H](OP(=O)(O)O)[C@H]1O [IP3, D-myo-inositol 1,4,5-trisphosphate] | 1.0 ± 0.1 | -1.24 |
